Data taken from patent US20040037775A1 (priority 2000, published 2004).

Assay: solution-phase peptide synthesis; Fmoc-PAL-PEG-PS; HATU/DIEA
Details: cyclisation step, on linear precursor

cyclic-ITDGEA (PRGGSK; cyclic)
cyclisation yield: 45%
